PubChem BioAssay AID1224830 | NIAID | 2016
This is a random part of about 18,000 deposited reagents. In the full data, about 2,900 (16%) were called active. 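Calls are made per well; low scores hint the gene aids the LPS response, high scores that it dampens it.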 Repeated entries: four replicate wells of each siRNA pool.

Screen: 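Genes whose knock-down alters the TNF-alpha reporter response to LPS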 (primary screen)
Cells: human THP-1 monocytic leukaemia cells, TNF dual-luciferase reporter clone, PMA-differentiated to macrophage-like cells
Reagents: siRNA pool against human genes, 50 nM
Time to read-out: LPS for 4 h, given about 3 days after siRNA transfection
Conditions: bacterial LPS (TLR4 ligand), 10 ng/ml
Measurement: 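Ratio of firefly to renilla light, scaled to the plate median and expressed as a robust z-score per replicate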
Scale: TNF reporter robust z-score: higher = stronger TNF reporter response to LPS
Active means: 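a well is active when its z-score exceeds 2.8 or falls below -1.5; control wells carry no call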

The first 5 entries as a preview:
| gene knocked down | TNF reporter robust z-score | activity call |
| --- | --- | --- |
| BEX4 (GeneID 56271) | 1.1 | inactive |
| BEX4 (GeneID 56271) | 0.44 | inactive |
| BEX4 (GeneID 56271) | 0.63 | inactive |
| BEX4 (GeneID 56271) | -0.15 | inactive |
| CTXN1 (GeneID 404217) | -0.07 | inactive |

The listing, from the start:
| gene knocked down | TNF reporter robust z-score | activity call |
| --- | --- | --- |
| BEX4 (GeneID 56271) | 1.1 | inactive |
| BEX4 (GeneID 56271) | 0.44 | inactive |
| BEX4 (GeneID 56271) | 0.63 | inactive |
| BEX4 (GeneID 56271) | -0.15 | inactive |
| CTXN1 (GeneID 404217) | -0.07 | inactive |
| CTXN1 (GeneID 404217) | 0.08 | inactive |
| CTXN1 (GeneID 404217) | 0.83 | inactive |
| CTXN1 (GeneID 404217) | -0.43 | inactive |
| HUS1B (GeneID 135458) | 0.08 | inactive |
| HUS1B (GeneID 135458) | 0.11 | inactive |
| HUS1B (GeneID 135458) | 0.09 | inactive |
| HUS1B (GeneID 135458) | 0.43 | inactive |
| BTRC (GeneID 8945) | 8.59 | active |
| BTRC (GeneID 8945) | 1.99 | inactive |
| BTRC (GeneID 8945) | 3.05 | active |
| BTRC (GeneID 8945) | 7.27 | active |
| CHM (GeneID 1121) | -0.44 | inactive |
| CHM (GeneID 1121) | -0.04 | inactive |
| CHM (GeneID 1121) | -0.51 | inactive |
| HMGCL (GeneID 3155) | -1.59 | active |
| HMGCL (GeneID 3155) | -0.05 | inactive |
| HMGCL (GeneID 3155) | -1.93 | active |
| HMGCL (GeneID 3155) | -1.26 | inactive |
| PPM1B (GeneID 5495) | -0.29 | inactive |
| PPM1B (GeneID 5495) | 0.14 | inactive |
| PPM1B (GeneID 5495) | -0.64 | inactive |
| PPM1B (GeneID 5495) | 0.13 | inactive |
| WDR6 (GeneID 11180) | 0.04 | inactive |
| WDR6 (GeneID 11180) | 0.66 | inactive |
| WDR6 (GeneID 11180) | -0.72 | inactive |
| WDR6 (GeneID 11180) | 1.06 | inactive |
| CACFD1 (GeneID 11094) | 1.42 | inactive |
| CACFD1 (GeneID 11094) | 0.47 | inactive |
| CACFD1 (GeneID 11094) | 0 | inactive |
| CACFD1 (GeneID 11094) | 1.28 | inactive |
| NPY (GeneID 4852) | -0.98 | inactive |
| NPY (GeneID 4852) | -0.38 | inactive |
| NPY (GeneID 4852) | -0.87 | inactive |
| NPY (GeneID 4852) | -1.34 | inactive |
| MIS12 (GeneID 79003) | -1.23 | inactive |
| MIS12 (GeneID 79003) | -1.3 | inactive |
| MIS12 (GeneID 79003) | -1.16 | inactive |
| MIS12 (GeneID 79003) | -0.8 | inactive |
| ECH1 (GeneID 1891) | 0.3 | inactive |
| ECH1 (GeneID 1891) | 0.46 | inactive |
| ECH1 (GeneID 1891) | 0.63 | inactive |
| ECH1 (GeneID 1891) | 0.35 | inactive |
